These results are taken from article PMC9550257.

Chains of the proteins cited; added tags and fusions are not shown.
UniProt O15205: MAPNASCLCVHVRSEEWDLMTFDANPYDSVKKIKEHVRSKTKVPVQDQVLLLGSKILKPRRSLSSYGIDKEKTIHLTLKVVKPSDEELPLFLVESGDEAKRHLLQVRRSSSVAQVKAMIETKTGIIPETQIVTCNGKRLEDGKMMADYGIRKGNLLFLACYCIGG
UniProt Q93009: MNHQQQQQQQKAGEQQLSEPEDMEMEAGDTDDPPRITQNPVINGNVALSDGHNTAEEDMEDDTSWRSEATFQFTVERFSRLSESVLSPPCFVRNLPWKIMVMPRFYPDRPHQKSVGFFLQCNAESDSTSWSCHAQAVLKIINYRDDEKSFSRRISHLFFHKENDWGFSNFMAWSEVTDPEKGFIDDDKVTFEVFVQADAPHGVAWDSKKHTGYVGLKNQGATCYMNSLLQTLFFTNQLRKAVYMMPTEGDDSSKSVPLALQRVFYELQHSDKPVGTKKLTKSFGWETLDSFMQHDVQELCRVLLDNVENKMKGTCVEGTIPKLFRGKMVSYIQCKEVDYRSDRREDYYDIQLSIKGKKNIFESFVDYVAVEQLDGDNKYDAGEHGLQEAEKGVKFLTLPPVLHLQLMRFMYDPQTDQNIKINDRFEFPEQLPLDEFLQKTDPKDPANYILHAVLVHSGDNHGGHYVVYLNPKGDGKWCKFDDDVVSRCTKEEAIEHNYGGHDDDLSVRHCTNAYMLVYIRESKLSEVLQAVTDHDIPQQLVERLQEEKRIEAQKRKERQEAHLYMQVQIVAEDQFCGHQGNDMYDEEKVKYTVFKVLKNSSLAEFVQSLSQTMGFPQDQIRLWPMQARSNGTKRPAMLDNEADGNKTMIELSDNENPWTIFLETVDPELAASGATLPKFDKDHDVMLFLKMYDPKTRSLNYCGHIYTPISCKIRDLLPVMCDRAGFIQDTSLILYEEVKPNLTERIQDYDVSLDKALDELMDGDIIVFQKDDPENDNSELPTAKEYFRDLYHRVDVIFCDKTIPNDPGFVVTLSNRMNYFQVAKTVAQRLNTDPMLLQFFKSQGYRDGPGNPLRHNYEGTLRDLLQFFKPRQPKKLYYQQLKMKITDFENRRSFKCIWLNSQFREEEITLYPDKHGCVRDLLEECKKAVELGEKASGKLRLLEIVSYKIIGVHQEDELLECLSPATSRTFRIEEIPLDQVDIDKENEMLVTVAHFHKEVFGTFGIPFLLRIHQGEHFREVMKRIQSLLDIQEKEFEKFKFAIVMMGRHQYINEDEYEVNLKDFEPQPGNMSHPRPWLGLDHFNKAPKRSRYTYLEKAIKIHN

In this assay the target is FAT10 (bait of the immunoprecipitation-mass spectrometry screen) (UniProt O15205). Briefly: affinity purification with mass spectrometry; immunoprecipitation of FAT10, mass spectrometry of associated proteins; cells not told.

Results are given in words; binding and its absence hold for the method and conditions named. In cells and extracts the contact can be indirect. A yes stands for co-enrichment or nearness to the bait. Other partners may have been found.

For “USP7 (found in the FAT10 immunoprecipitation-mass spectrometry screen) (from UniProt Q93009 1-1102) (enzyme)”, the binding result is “binds”.
